According to PubChem BioAssay AID2549 (National Center for Advancing Translational Sciences (NCATS), 2010):
Hit rate of the full screen: of about 240,000 compounds, about 1,300 (0.54%) were called active. The shares of active, inactive and inconclusive entries below differ from those in the screen. Calls come from the whole dose curve; as a rule, active = well fitted inhibition curve with a large enough effect; inconclusive = small, poorly fitted or top-dose-only effect; inactive = flat fitted curve, though single readings scatter. A potency beside an inconclusive call is a rough fit, not a confirmed value.

Chains of the proteins cited; added tags and fusions are not shown. Lines headed by an entry give the natural chain unless they say otherwise; changes in a name come on top.
UniProt P46063: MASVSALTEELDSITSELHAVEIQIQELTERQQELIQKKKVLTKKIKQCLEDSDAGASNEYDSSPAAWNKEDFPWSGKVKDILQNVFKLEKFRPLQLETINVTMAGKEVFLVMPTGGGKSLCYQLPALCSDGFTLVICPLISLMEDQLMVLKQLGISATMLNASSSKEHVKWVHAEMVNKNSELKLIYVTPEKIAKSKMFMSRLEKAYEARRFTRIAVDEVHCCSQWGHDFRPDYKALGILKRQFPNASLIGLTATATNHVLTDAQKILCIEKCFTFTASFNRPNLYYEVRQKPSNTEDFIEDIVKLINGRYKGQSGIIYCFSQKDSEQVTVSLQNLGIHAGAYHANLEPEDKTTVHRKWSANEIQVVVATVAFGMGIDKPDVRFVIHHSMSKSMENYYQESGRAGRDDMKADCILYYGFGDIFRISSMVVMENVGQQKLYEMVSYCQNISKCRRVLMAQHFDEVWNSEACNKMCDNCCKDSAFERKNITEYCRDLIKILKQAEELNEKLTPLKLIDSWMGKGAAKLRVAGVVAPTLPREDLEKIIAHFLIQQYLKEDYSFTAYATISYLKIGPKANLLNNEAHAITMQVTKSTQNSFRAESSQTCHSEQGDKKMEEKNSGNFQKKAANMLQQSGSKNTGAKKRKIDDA

Target: ATP-dependent DNA helicase Q1 (Homo sapiens) (UniProt P46063)
Assay: qHTS Assay for Inhibitors of RecQ-Like Dna Helicase 1 (RECQ1); note: nearly all actives have a fitted effect of over 30% in size;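 for activity, negative = inhibition: plate controls were vehicle for no effect and no enzyme for full effect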
Details: RECQ1 DNA unwinding, red fluorescence kinetic read; activity, negative = inhibition: at 57.3 µM (top of the series); series mostly up to 57.3 µM
Summary of the method: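 RECQ1T1 50 nM; forked duplex (20 bp + 30-nt ss tails) 200 nM, ATP 2 mM final; pH 8.0, 2 mM MgCl2, 2.5 ug/ml poly(dI-dC); 15 min compound preincubation; discontinuous kinetic read over 2 h at RT.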
Potency is the fitted concentration of half-maximal effect.

| Compound | Potency | activity, negative = inhibition | outcome |
| --- | --- | --- | --- |
| N=C1/C(=C\c2ccc(-c3ccc(C(=O)O)cc3)o2)C(=O)N=C2SC=C(c3ccccc3)N12 | inconclusive: 35.5 µM [inhibitor, single point] | – | – |
| Cc1cc(C(F)F)n2nc(C(=O)Nc3sc4c(c3C#N)CCC4)nc2n1 | inconclusive: 35.5 µM [inhibitor, single point] | – | – |
| COc1cc(/C=C2\C(C)=C(C#N)c3nc(N)c(C#N)c(C)c32)ccc1OCC(=O)O | inconclusive: 28.2 µM [inhibitor, single point] | – | – |
| O=C1C=CC(=O)c2c(O)c(Cl)c(Cl)c(O)c21 | – | inactive: -7.38% | – |
| Cn1c(=O)[nH]c(=O)c2c1nc(Br)n2CCCc1ccccc1 | inconclusive: 0.398 µM [inhibitor, partial curve, poor fit] | – | – |
| CC(=O)c1c(C)nn(CC(O)Cn2c3c(c4cc(C)ccc42)CCCC3=O)c1C (stereo not drawn) | inconclusive: 5.62 µM [inhibitor, partial curve, poor fit] | – | – |
| O=C(CN1CCN(c2ccc(O)cc2)CC1)Nc1cc(S(=O)(=O)N2CCOCC2)ccc1Cl | inconclusive: 31.6 µM [inhibitor, single point] | – | – |
| CCc1cc(=O)oc2cc(C)c(CN3CCCC(C)C3)c(O)c12 (stereo not drawn) | active: 7.08 µM | – | – |
| COc1ccc(CCN2CC34C=CC(O3)C(C(=O)NCc3ccccc3Cl)C4C2=O)cc1OC (stereo not drawn) | inconclusive: 0.158 µM [inhibitor, full curve, poor fit] | – | – |
| CCCN(CCC)C(=O)c1ccc2c(=O)n(Cc3ccco3)c(=S)[nH]c2c1 | inconclusive: 39.8 µM [inhibitor, single point] | – | – |
| Clc1ccccc1CNCC1CCC(CNCc2ccccc2Cl)CC1 (stereo not drawn) | inconclusive: 2.82 µM [inhibitor, partial curve, poor fit] | – | – |
| CC(C)(C)c1nnc(N/N=C/c2ccccc2)n(N)c1=O | – | inactive: -7.85% | – |
| O=C(N/N=C/c1ccc[nH]1)c1ccccc1O | active: 3.55 µM | – | – |
| CCc1ccc(-c2csc(NC(=O)COC(=O)CCc3nc4ccccc4s3)n2)cc1 | inconclusive: 0.0316 µM [inhibitor, full curve, poor fit] | – | – |
| O=C(CN1CCOCC1)N1CCN(c2ccc3ccccc3n2)CC1 | inconclusive: 0.141 µM [inhibitor, partial curve, poor fit] | – | – |
| O=[N+]([O-])c1ccc(Sc2ccccn2)nc1 | – | – | inactive |
| C=CCn1c(SCC(=O)Nc2ccc(-c3nc4ccc(C)cc4s3)cc2)nnc1-c1ccccc1 | inconclusive: 1.41 µM [inhibitor, full curve] | – | – |
| CC1CCCC(C)N1C(=O)c1ccccc1Nc1ccc(SC(F)F)cc1 (stereo not drawn) | inconclusive: 22.4 µM [inhibitor, partial curve] | – | – |

Looked up by compound from the entries so far (2):

| Compound | Potency | activity, negative = inhibition | outcome |
| --- | --- | --- | --- |
| CCCN(CCC)C(=O)c1ccc2c(=O)n(Cc3ccco3)c(=S)[nH]c2c1 | inconclusive: 39.8 µM [inhibitor, single point] | – | – |
| N=C1/C(=C\c2ccc(-c3ccc(C(=O)O)cc3)o2)C(=O)N=C2SC=C(c3ccccc3)N12 | inconclusive: 35.5 µM [inhibitor, single point] | – | – |
